# Primary screen of a compound library

Measurements from “University of Dundee, Small-Polar-MMV Screening Library” (2021), ChEMBL document CHEMBL3988442.

The filed quantity is “Percent Effect” (%). The controls that fix the scale are not given in the record; negative values are as filed. The compounds are a random part of those screened.

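Assay of Toxoplasma gondii numbers, read through their beta-galactosidase reporter with a colour substrate. Tested at 50 µM. The record gives no direction; the compounds picked for IC50 retests had high values, so higher reads as fewer parasites. About 18,000 compounds were tested under these conditions; 0.94% (about 170) showed 50% or more at least once.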

Compound	effect
Cc1occc1C(=O)NCc1ccnc(N(C)C)c1	-9.727
CC(=O)c1cnnn1C	1.872
CCN1CCN(C2CCCC2)C(CCO)C1 (stereo not shown)	7.057
NC(c1ccccc1)c1ccco1 (stereo not shown)	-2.307
CCCn1cnnc1C(C)NC(=O)c1cnc(O)cn1 (stereo not shown)	7.595
CC[C@H](N)C(=O)N1CCN(C2CC2)C(=O)C1	-1.688
COC(=O)c1ccc(OCC(O)CNC(C)(C)C)cc1 (stereo not shown)	17.29
O=C(Cc1ccsc1)N1CCC(c2cc[nH]n2)CC1	0.9318
COCCOCC(=O)N1CC(Oc2ccc(F)cc2)C1	-18.71
COc1cccc(NC(=O)CSc2nnc(C)n2C)c1	-28.14
c1cncc(CCNCc2cccc3c2OCCO3)c1	-5.823
CC(C)=CCOC(=O)c1ccc(C(N)=O)nc1	1.387
CC(C)(C)OC(=O)N1CCOC(CN)C1 (stereo not shown)	-5.708
Cc1cc2nc(C(C)C)cc(N(C)CC(N)=O)n2n1	-3.085
CC(=O)N(Cc1cccc(F)c1)C1CC1	0.02752
COCCOC1CCN(C(=O)c2nccn2C)CC1	0.514
Cc1noc(C(C)C)c1C(=O)NCC1CCS(=O)(=O)C1 (stereo not shown)	-12.6
CN(Cc1cccn1C)C(=O)c1ccccc1F	-4.618
CC(C#N)N1CCOCC1 (stereo not shown)	-10.49
Cc1noc(C)c1C(=O)NC1CCN(CC2CC2)CC1	-0.3877
Cc1ccccc1CNC(=O)c1ccn(C)c(=O)c1	-5.6
CNC(=O)C(C)S(=O)(=O)Cc1cccc(C(F)(F)F)c1 (stereo not shown)	22.11
O=C(Nc1ncccn1)c1ccc(Br)o1	-18.92
NC1CCN(C(=O)c2ccccc2C(F)(F)F)CC1	-1.749
CCn1cc([C@@H]2NC(=O)CC[C@H]2N)cn1	-8.579
COc1ccc2c(c1)NC(=O)C2O (stereo not shown)	24.15
CCCC1COCCN1Cc1cc(C)n[nH]1 (stereo not shown)	-4.854
OCCc1nccs1	6.999
CN(Cc1ccc(N)nc1)c1ncc(Cl)cn1	38.28
COc1ccc(CC(=O)N(C)C)c(OC)c1OC	17.76
CC(=O)N1N=C(c2ccccn2)CC1c1ccccc1 (stereo not shown)	-4.046
COc1ccc(OCCN2CCC(O)CC2)cc1	-1.313
Cc1noc(Cn2c(=O)c(I)cn(C)c2=O)n1	-16.06
COc1ncccc1C(=O)NCCc1cccs1	-3.715
CN(C)CCN(C)C[C@@H]1CN(C(=O)CO)C[C@@H]1CO	-3.288
Cc1cncc(NCc2ncc[nH]2)c1	-10.75
Cc1noc(C(C)N2CCn3c(nc(C)c3C)C2)n1 (stereo not shown)	3.732
CC(C)[C@@H]1CN(C(=O)c2ccc(O)cn2)C[C@H]1N(C)C	-13.98
Cc1cccc(CN(CC(N)=O)Cc2ccccn2)c1	11.14
CC1CSc2ccccc2C(=O)N1 (stereo not shown)	-0.243
Cc1cc(CC#N)nn1C	16.19
COc1cc(NC(=O)CCN2CC(O)C2)cc(OC)c1	-10.62
O=C(CC1CCCCC1)N1CCNCC1	-13.47
Cc1cccc2[nH]c(CN)nc12	30.46
O=C(NCc1ccc2sccc2c1)C1CNCCO1 (stereo not shown)	-8.841
CC(=O)c1c(C)cccc1NC(=O)CN1CCCC1=O	-5.103
Cc1ccn(-c2ccccc2NC(=O)CN(C)C)n1	0.9397
CCNC(=O)C(C)Nc1ccc(C)cc1C (stereo not shown)	-6.641

Some entries from above, unchanged:

| Compound | effect |
|---|---|
| `c1cncc(CCNCc2cccc3c2OCCO3)c1` | -5.823 |
| `CN(Cc1ccc(N)nc1)c1ncc(Cl)cn1` | 38.28 |
| `CC(=O)c1c(C)cccc1NC(=O)CN1CCCC1=O` | -5.103 |
| `COc1cccc(NC(=O)CSc2nnc(C)n2C)c1` | -28.14 |
| `NC(c1ccccc1)c1ccco1` (stereo not shown) | -2.307 |